These results are taken from the supplement of paper PMC8166895.

Each structure is given as a SMILES string. Where a name gives a salt, the structure may show the parent alone. The list shows a part of the results. Most values lie at the level of the controls, where differences are scatter.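 Differential scanning fluorimetry gave melting temperatures in a one-replicate pilot screen of a library of approved drugs plus clinical or known-target compounds. Hits increasing melting point at least 2 °C were the strongest stabilizers, while negative shifts signify destabilization.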

The experiment relates to SARS-CoV-2 main protease (Mpro, nsp5). Description: thermal shift ΔTm of Mpro relative to plate average Tm; higher = stronger thermal stabilization of Mpro (binding). The note with it: 10 µM; protein concentration 1 µM.
For `CC(C)=CCC[C@]1(C)C=Cc2c(O)c3c(c(CC=C(C)C)c2O1)O[C@]12C(=C[C@@H]4C[C@H]1C(C)(C)O[C@@]2(C/C=C(/C)C(=O)O)C4=O)C3=O` [Gambogic Acid], the “thermal shift ΔTm of Mpro” value was -0.218 °C. Next, `CCNC(=O)C[C@@H]1N=C(c2ccc(Cl)cc2)c2cc(OC)ccc2-n2c(C)nnc21`: 0.0921 °C; `Nc1cccc2c1C(=O)N(C1CCC(=O)NC1=O)C2=O` (configuration not stated) [Pomalidomide]: -0.236 °C; `c1cnc(N2CCNCC2)nc1` [2-(1-Piperazinyl)pyrimidine]: -0.0746 °C. Regarding `Oc1ccc(OC2CCCCO2)cc1` (configuration not stated) [Deoxyarbutin], the “thermal shift ΔTm of Mpro” value was -0.785 °C.

As to `COc1ccccc1N1CCN(CCN(C(=O)C2CCCCC2)c2ccccn2)CC1`, the “thermal shift ΔTm of Mpro” value was found to be 0.0724 °C. As to `Nc1ccn([C@@H]2O[C@H](CO)[C@@H](O)C2(F)F)c(=O)n1` [Gemcitabine], the “thermal shift ΔTm of Mpro” value is -0.0153 °C.

On to `CO[C@H]1C[C@@H]2CC[C@@H](C)[C@@](O)(O2)C(=O)C(=O)N2CCCC[C@H]2C(=O)O[C@H]([C@H](C)C[C@@H]2CC[C@@H](OCCO)[C@H](OC)C2)CC(=O)[C@H](C)/C=C(\C)[C@@H](O)[C@@H](OC)C(=O)[C@H](C)C[C@H](C)/C=C/C=C/C=C/1C` [Everolimus (RAD001)], for which the “thermal shift ΔTm of Mpro” value is -0.593 °C. `Fc1ccc(Cl)cc1-c1nc(Nc2ccncc2)c2nccnc2n1`: the “thermal shift ΔTm of Mpro” value was -0.141 °C.

Consider `CN(C)CCN(Cc1ccccc1)c1ccccn1` [Tripelennamine HCl], for which the “thermal shift ΔTm of Mpro” value is -0.113 °C. For the compound `CC1CNc2c(cccc2S(=O)(=O)N[C@@H](CCCNC(=N)N)C(=O)N2CC[C@@H](C)C[C@@H]2C(=O)O)C1` (some centres not stated) [Argatroban], the “thermal shift ΔTm of Mpro” value worked out at 0.142 °C.

As for `COC(=O)Nc1nc2ccccc2[nH]1` [Carbendazim], the “thermal shift ΔTm of Mpro” value was 0.0379 °C. Next, `CC(=O)O[C@@]12CO[C@@H]1C[C@H](O)[C@@]1(C)C(=O)[C@H](O)C3=C(C)[C@@H](OC(=O)[C@H](O)[C@@H](NC(=O)OC(C)(C)C)c4ccccc4)C[C@@](O)([C@@H](OC(=O)c4ccccc4)[C@H]21)C3(C)C` [Docetaxel Trihydrate]: -0.118 °C. To `CC(=O)O[C@@]12CO[C@@H]1C[C@H](O)[C@@]1(C)C(=O)[C@H](O)C3=C(C)[C@@H](OC(=O)[C@H](O)[C@@H](NC(=O)OC(C)(C)C)c4ccccc4)C[C@@](O)([C@@H](OC(=O)c4ccccc4)[C@H]21)C3(C)C` [Docetaxel] belongs -0.0407 °C. Next, `Nc1ncnc2c1ncn2[C@@H]1O[C@H](CO)[C@@H](O)[C@H]1O` [Adenosine]: 0.036 °C; `Clc1ccc(CSC(Cn2ccnc2)c2ccc(Cl)cc2Cl)cc1` (configuration not stated) [Sulconazole Nitrate]: -0.36 °C. For `O=C(c1ccc(Nc2nccc(-c3cc4ccccc4s3)n2)cc1)N1CCC(N2CCCC2)CC1` [IKK-16 (IKK Inhibitor VII)], the “thermal shift ΔTm of Mpro” value was -0.122 °C. Next, `CN1c2ccccc2C(NCCCCCCC(=O)O)c2ccc(Cl)cc2S1(=O)=O` (configuration not stated) [Tianeptine sodium]: 0.138 °C; `C[C@@H](NC(=O)c1ncnc(N)c1Cl)c1ncc(C(=O)Nc2cc(C(F)(F)F)c(Cl)cn2)s1`: -0.00957 °C; `Cc1cc(/C=C2/SC(=S)NC2=O)c(C)n1-c1cccnc1` [Optovin]: -0.0603 °C. To `Cc1cc(C)c(Nc2ccnc(Nc3ccc(C#N)cc3)n2)c(C)c1` [Dapivirine (TMC120)] belongs -0.0313 °C; to `CCn1c(=O)c(-c2ccc(-c3cncc(C)n3)cc2Cl)cc2cnc(NCCC3CCN(C)CC3)nc21`, 0.192 °C. Next, `C[C@]12CC[C@@H]3c4ccc(O)cc4CC[C@H]3[C@@H]1CC[C@@H]2O` [Estradiol]: -0.233 °C; `CCCCCOC1CCC(NC(=O)c2cnn3c(C)cc(C)nc23)CC1` (configuration not stated): -0.239 °C. For `CCCC(CCC)C(N)=O` [Valpramide], the “thermal shift ΔTm of Mpro” value was 0.124 °C. Turning to `CC(OC(=O)OC1CCCCC1)OC(=O)C1=C(CSc2nnnn2CCN(C)C)CS[C@@H]2[C@H](NC(=O)Cc3csc(N)n3)C(=O)N12` (some centres not stated) [Cefotiam Hexetil Hydrochloride], the “thermal shift ΔTm of Mpro” value is 0.0946 °C. To `CCNC(=O)Nc1ccc(-c2nc3c(c(N4CCOC[C@@H]4C)n2)CCN(C2COC2)C3)cc1` belongs -0.215 °C; to `CC(C)(C)n1nc(Cc2cccc3ccccc23)c2c(N)ncnc21`, -0.244 °C; to `CN(C)c1cc(NC(=O)CNC(C)(C)C)c(O)c2c1C[C@H]1C[C@H]3[C@H](N(C)C)C(=O)C(C(N)=O)=C(O)[C@@]3(O)C(=O)C1=C2O` [Tigecycline], 0.182 °C.

Turning to `CCCN(CCC)S(=O)(=O)c1ccc(C(=O)O)cc1` [Probenecid], the “thermal shift ΔTm of Mpro” value amounted to 0.049 °C. Next, `COc1ccc(C(=C2C(=O)Nc3ccccc32)c2ccc(OC)cc2)cc1`: 0.0147 °C. For the compound `CCN(CC)C(=O)c1cccc(C)c1` [Delphene], the “thermal shift ΔTm of Mpro” value was found to be 0.192 °C.

In the case of `CCN(CC)C(=O)c1cccnc1` [Corvotone], the “thermal shift ΔTm of Mpro” value is 0.141 °C.

With `CC(C)c1ccc(NC(=O)Cn2cnc3c2c(=O)n(C)c(=O)n3C)cc1`, the “thermal shift ΔTm of Mpro” value is -0.083 °C. To `CNC(=O)CNc1cnc2ccc(-c3ccc(OC)c(OC)c3)cc2n1` belongs 0.0348 °C; to `C[C@H](NC(=O)/C(C#N)=C/c1cccc(Br)n1)c1ccccc1`, -0.733 °C.

As for `CCNC(=O)c1[nH]nc(-c2cc(Cl)c(O)cc2O)c1-c1ccc(OC)cc1`, the “thermal shift ΔTm of Mpro” value was 0.263 °C.
